This note sets out measurements from the supplement of paper PMC6289059.

Some of the results follow. Many values rest on one well or one pass, so single values are uncertain.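 The assay uses human stem cell-derived hepatocyte-like cells whose DGUOK gene was disrupted by CRISPR, modeling liver mtDNA depletion syndrome. ATP signals were scored within each plate, and any drug with a score of at least 3 was called a primary hit.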

The test system of the assay is DGUOK Δ14/Δ5 iPSC-derived hepatocyte-like cells (SV20). The assay can be described thus: ATP level (CellTiter-Glo luminescence) Z score relative to plate distribution, under 2-DG glycolysis block; higher = more cellular ATP (rescue of mitochondrial ATP production). The following applies: 5 µM; treatment time: day 15 to day 20 of differentiation (5 days); 2-deoxy-D-glucose: 20 mM for 24 h before assay. For orientation: Cellular ATP, detected with luciferase, serves as a proxy for viable cell number.
For `CC(C)(c1ccc(O)cc1)c1ccc(O)cc1`, the ATP level is inactive: -2.09.

For `CC1(C)NC(=O)N(c2ccc([N+](=O)[O-])c(C(F)(F)F)c2)C1=O`, the ATP level was inactive: 2.

Turning to `CCCCCCc1ccc(O)cc1O`, the ATP level is inactive: 2.04.

With `C[C@]12C=CC(=O)C=C1CC[C@@H]1[C@@H]2[C@@H](O)C[C@@]2(C)[C@H]1CC[C@]2(O)C(=O)COC(=O)CCC(=O)O`, the ATP level is inactive: 2.11.

Turning to `COC(=O)[C@@H]1[C@H]2C[C@H]3c4[nH]c5ccccc5c4CCN3C[C@@H]2CC[C@@H]1O`, the ATP level was inactive: 0.298.

With `C=C(C)[C@@H]1CC=C(C(=O)O)CC1`, the ATP level is inactive: -0.361.

As for `N#C[C@@H]1C[C@@H]2C[C@@H]2N1C(=O)[C@@H](N)C12CC3CC(CC(O)(C3)C1)C2`, the ATP level is inactive: 0.655.

In the case of `CCS(=O)(=O)CCn1c([N+](=O)[O-])cnc1C`, the ATP level is inactive: 0.514.

Regarding `O=C1CCc2cc(OCCCCc3nnnn3C3CCCCC3)ccc2N1`, the ATP level is inactive: 0.514.

On to `COc1cc(OC)c2c(c1)OC(c1ccccc1)CC2=O` (configuration not stated), for which the ATP level was inactive: 0.767.

As for `CCCCOc1cc(C(=O)NCCN(CC)CC)c2ccccc2n1`, the ATP level is inactive: -3.77.

Turning to `CC[C@H]1OC(=O)[C@H](C)C(=O)[C@H](C)[C@@H](O[C@@H]2O[C@H](C)C[C@H](N(C)C)[C@H]2O)[C@](C)(OC)C[C@@H](C)C(=O)[C@H](C)[C@H]2N(CCCCn3cnc(-c4cccnc4)c3)C(=O)O[C@]12C`, the ATP level is inactive: -0.249.

Take `C[C@@]12C[C@@]3(O)O[C@@H](O1)[C@]1(COC(=O)c4ccccc4)[C@H]3C[C@@]12O[C@@H]1O[C@H](CO)[C@@H](O)[C@H](O)[C@H]1O`: the ATP level is inactive: 0.67.

For `CCC1=C(C)CN(C(=O)NCCc2ccc(S(=O)(=O)NC(=O)N[C@H]3CC[C@H](C)CC3)cc2)C1=O`, the ATP level was inactive: -0.274.

On to `Sc1nc2ccccc2s1`, for which the ATP level was inactive: 0.638.

As to `COc1ccc2cc1Oc1ccc(cc1)C[C@H]1c3cc(c(OC)cc3CCN1C)Oc1c(OC)c(OC)cc3c1[C@H](C2)N(C)CC3`, the ATP level was inactive: -0.815.

On to `CCOCCOc1ccccc1C(N)=O`, for which the ATP level was inactive: -0.0153.

For the compound `C[C@]12CC[C@@H]3c4ccc(O)cc4CC[C@H]3[C@@H]1CCC2=O`, the ATP level was inactive: -0.032.

In the case of `CC(=O)c1c(O)c(C)c(O)c2c1OC1=CC(=O)C(C(C)=O)C(=O)C12C` (configuration not stated), the ATP level was inactive: -10.3.

`O=C1OC2(c3ccc(O)cc3Oc3cc(O)ccc32)c2ccccc21`: the ATP level was inactive: 1.03.

With `CC(=O)OCC1=C(C(=O)O)N2C(=O)[C@@H](NC(=O)CSc3ccncc3)[C@H]2SC1`, the ATP level is inactive: 0.872.

Turning to `COc1cnc(NS(=O)(=O)c2ccc(N)cc2)nc1`, the ATP level was inactive: -13.3.
